# Measurements as given in the supplement of paper PMC10849652.
# By UniProt entry, the sequences of proteins in these tests, tags left out. Where a name states a change or a piece, a line headed by the entry shows the natural chain unless it says otherwise.
# UniProt Q9H977: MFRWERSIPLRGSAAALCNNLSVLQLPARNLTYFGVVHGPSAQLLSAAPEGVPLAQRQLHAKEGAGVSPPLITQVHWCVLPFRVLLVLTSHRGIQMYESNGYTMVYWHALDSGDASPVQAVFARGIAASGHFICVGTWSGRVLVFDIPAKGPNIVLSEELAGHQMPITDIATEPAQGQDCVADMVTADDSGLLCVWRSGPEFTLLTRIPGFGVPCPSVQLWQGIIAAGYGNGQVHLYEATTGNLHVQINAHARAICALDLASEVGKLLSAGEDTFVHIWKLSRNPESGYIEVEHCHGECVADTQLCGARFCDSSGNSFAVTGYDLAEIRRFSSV
# UniProt Q9Y3C0: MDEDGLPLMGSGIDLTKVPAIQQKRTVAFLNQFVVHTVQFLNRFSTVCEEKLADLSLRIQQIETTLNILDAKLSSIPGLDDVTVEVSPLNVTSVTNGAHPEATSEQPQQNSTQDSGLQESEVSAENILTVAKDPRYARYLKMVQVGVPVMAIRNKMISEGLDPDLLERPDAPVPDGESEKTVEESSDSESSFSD
# UniProt Q9Y4P8: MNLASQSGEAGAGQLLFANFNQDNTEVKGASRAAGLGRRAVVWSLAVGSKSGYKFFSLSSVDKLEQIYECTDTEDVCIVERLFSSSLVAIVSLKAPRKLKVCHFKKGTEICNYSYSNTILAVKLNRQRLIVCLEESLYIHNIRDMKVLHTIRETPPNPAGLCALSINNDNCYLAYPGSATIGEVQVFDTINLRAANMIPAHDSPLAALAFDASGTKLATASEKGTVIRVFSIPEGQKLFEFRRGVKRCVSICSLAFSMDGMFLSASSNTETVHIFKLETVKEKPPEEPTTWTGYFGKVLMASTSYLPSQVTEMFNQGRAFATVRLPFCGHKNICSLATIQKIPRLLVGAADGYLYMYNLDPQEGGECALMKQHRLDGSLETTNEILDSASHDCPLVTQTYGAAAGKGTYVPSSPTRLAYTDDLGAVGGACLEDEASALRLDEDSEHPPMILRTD
# UniProt P42768: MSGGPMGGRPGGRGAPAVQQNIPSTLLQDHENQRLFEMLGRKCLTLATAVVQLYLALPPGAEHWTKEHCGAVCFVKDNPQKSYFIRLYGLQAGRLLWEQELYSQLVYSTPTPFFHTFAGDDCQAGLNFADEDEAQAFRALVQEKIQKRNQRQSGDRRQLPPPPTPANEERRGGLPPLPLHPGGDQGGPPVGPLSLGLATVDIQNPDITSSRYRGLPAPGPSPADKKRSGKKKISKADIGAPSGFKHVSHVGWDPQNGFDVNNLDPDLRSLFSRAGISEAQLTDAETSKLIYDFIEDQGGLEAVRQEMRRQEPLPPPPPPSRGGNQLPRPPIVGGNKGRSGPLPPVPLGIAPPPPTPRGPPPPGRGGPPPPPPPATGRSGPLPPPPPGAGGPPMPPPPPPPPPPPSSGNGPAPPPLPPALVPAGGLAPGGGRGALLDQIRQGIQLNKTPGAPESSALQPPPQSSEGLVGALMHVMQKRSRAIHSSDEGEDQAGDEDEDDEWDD
# UniProt Q9H967: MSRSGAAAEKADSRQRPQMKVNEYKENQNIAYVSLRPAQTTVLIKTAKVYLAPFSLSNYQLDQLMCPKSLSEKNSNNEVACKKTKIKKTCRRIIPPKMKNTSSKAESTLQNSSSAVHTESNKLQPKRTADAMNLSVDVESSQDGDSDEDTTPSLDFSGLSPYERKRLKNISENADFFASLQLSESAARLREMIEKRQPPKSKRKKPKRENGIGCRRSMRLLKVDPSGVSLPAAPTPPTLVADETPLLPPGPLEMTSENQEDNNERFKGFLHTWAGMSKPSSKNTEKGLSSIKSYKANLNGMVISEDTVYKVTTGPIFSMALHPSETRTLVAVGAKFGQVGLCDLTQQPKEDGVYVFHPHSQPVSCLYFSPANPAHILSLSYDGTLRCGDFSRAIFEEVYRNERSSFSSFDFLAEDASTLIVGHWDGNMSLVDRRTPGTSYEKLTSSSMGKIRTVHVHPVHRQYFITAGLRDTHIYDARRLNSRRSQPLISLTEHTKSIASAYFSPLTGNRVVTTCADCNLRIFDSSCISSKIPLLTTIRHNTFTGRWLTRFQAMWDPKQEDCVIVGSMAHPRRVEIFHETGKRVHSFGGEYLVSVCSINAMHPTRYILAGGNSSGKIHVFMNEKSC
# UniProt Q9HD64: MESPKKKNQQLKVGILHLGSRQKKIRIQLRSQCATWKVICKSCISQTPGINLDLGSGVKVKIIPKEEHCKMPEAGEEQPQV
# UniProt Q15906, whole entry, looked up: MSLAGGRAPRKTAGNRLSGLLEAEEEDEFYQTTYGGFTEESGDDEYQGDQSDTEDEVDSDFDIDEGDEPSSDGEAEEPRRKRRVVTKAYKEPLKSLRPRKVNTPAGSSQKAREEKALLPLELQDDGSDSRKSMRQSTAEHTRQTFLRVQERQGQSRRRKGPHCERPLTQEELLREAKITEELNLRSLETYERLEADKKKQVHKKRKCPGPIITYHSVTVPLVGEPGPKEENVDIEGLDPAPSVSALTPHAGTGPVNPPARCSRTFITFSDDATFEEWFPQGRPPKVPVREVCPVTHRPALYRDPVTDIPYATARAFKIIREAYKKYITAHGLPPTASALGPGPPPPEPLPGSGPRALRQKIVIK
# UniProt Q86Y07: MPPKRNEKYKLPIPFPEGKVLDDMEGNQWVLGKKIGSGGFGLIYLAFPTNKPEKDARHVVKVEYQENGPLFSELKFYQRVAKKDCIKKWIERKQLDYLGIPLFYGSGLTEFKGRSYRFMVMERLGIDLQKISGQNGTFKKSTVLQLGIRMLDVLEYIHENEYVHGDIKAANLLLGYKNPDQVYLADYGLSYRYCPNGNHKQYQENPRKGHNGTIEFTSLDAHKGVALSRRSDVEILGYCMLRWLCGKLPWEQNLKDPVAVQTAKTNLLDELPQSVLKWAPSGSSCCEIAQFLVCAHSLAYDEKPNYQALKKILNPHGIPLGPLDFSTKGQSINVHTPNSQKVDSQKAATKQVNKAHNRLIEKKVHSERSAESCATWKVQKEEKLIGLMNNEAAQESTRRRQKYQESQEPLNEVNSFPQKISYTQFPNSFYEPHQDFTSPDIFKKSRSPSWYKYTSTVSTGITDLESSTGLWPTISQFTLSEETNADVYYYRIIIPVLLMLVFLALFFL
# UniProt O00258: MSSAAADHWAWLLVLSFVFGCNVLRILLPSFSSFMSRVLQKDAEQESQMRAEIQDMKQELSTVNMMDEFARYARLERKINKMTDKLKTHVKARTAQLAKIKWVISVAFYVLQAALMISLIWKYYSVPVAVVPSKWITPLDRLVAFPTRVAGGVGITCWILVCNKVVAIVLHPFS
# UniProt A4D1P6: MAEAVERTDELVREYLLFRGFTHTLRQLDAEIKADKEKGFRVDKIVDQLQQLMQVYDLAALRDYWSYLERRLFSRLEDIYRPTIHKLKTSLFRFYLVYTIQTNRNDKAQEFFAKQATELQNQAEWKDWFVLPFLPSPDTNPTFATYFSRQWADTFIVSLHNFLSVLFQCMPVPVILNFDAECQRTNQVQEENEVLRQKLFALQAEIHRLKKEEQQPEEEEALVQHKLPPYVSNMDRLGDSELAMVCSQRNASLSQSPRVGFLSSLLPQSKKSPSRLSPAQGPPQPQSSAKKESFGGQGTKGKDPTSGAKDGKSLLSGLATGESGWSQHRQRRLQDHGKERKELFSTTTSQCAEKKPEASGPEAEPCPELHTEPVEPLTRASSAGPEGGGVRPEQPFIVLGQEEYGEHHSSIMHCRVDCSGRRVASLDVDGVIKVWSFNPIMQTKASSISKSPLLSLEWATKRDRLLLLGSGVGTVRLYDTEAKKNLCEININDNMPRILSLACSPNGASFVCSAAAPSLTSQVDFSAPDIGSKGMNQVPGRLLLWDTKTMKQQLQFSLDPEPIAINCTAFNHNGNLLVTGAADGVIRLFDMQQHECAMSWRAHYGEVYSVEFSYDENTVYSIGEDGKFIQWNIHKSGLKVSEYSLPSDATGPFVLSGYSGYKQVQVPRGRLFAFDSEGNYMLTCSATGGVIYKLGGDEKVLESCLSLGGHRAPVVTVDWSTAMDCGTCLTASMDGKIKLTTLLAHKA
# UniProt P30291: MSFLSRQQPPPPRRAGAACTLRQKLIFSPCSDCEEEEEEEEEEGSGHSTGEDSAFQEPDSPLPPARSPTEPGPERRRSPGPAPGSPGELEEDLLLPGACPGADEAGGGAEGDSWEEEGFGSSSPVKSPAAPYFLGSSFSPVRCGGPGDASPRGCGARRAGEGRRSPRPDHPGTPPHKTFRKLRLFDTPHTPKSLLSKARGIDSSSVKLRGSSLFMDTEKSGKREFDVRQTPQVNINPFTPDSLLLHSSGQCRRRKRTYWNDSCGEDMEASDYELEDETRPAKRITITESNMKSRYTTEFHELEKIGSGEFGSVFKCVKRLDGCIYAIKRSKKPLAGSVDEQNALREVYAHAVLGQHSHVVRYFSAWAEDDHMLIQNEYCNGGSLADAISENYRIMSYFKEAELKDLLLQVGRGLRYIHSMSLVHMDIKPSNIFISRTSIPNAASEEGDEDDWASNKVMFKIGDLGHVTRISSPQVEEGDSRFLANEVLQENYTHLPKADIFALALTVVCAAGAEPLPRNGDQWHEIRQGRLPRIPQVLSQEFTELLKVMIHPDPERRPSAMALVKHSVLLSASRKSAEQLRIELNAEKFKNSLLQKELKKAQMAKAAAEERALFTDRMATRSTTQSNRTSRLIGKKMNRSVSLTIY
# UniProt Q502W6: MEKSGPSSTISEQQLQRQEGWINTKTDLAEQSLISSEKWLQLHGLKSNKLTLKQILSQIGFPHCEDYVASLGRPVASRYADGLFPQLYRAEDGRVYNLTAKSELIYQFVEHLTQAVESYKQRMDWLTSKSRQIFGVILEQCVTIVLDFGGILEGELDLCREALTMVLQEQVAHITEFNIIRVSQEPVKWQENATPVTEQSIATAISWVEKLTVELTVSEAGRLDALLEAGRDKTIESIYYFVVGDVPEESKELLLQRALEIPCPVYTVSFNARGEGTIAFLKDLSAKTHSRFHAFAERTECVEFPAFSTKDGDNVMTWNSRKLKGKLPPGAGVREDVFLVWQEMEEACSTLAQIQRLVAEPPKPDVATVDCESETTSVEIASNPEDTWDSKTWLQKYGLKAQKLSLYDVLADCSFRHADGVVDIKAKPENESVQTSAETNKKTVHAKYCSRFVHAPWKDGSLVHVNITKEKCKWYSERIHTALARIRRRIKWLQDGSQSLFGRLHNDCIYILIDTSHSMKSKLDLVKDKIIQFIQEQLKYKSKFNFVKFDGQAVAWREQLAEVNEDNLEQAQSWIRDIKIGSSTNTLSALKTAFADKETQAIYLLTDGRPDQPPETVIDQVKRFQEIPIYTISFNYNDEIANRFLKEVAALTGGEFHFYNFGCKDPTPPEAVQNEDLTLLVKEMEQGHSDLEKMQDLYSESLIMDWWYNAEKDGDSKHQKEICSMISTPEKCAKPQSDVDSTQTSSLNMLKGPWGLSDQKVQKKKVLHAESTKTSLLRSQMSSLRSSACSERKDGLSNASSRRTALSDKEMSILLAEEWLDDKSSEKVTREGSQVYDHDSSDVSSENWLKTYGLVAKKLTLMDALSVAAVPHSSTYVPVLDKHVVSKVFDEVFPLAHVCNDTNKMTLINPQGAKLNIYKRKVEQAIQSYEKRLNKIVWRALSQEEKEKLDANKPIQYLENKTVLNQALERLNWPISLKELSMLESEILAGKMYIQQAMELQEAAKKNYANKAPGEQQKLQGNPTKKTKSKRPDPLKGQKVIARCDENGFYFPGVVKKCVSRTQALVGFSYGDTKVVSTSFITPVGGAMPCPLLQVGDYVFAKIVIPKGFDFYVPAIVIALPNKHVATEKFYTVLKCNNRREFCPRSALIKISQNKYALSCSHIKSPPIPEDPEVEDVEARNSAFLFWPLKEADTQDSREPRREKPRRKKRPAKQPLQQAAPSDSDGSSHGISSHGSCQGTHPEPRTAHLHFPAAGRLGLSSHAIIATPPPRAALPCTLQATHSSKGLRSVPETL
# UniProt Q96HA8: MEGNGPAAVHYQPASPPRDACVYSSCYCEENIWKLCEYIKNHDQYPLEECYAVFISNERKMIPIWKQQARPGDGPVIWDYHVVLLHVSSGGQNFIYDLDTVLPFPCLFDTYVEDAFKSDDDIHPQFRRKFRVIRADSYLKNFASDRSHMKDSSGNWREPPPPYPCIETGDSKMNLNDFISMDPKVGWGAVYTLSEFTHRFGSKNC
# UniProt Q5T750: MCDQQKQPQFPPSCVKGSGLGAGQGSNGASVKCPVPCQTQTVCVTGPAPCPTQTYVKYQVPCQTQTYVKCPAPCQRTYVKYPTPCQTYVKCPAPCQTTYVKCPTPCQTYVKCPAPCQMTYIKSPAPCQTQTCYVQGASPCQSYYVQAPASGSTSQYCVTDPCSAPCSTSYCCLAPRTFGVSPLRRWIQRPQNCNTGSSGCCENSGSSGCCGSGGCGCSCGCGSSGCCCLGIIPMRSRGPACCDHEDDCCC
# UniProt Q9BRG1: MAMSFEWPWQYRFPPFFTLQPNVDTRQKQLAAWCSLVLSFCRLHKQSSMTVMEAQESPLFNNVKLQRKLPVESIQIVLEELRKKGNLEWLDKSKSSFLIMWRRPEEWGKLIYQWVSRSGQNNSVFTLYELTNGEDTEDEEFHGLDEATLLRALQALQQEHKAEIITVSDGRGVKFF
# The list shows a part of the results.
# What was measured:
# Test in all cases: log2 fold change, soluble protein after heating vs DMSO (PISA); higher = thermal stabilisation; K562 lysate, 10 uM; active = over 0.2 and 3.5 SD of the protein, either way, in both replicates (recomputed)
# pictilisib = compound: CS(=O)(=O)N1CCN(Cc2cc3nc(-c4cccc5[nH]ncc45)nc(N4CCOCC4)c3s2)CC1 [pictilisib]
# How it was run: (§1)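 Log-two fold change in thermal stability relative to solvent controls is reported from duplicates. For each sample, crude K562 extract from dounce-homogenised pellets in PBS pH 7.4 with 1 mM MgCl2, at 1 mg/mL protein, was treated with 10 μM compound for 30 min. Aliquots heated for 3 min across 48°C-58°C were pooled, brought to 0.5% NP-40 at 4°C and cleared at 21,000xg for 90 min. The supernatant was quantified by TMTpro 16plex LC-MS/MS with channel sums equalised.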
# crizotinib = compound: C[C@@H](Oc1cc(-c2cnn(C3CCNCC3)c2)cnc1N)c1c(Cl)ccc(F)c1Cl [crizotinib]
# How it was run: as §1
# [1] = compound: C[C@H](C1=CC=C(C=C1)C(=O)NC2=C3C=CNC3=NC=C2)N
# How it was run: as §1
# duvelisib = compound: C[C@H](Nc1ncnc2nc[nH]c12)c1cc2cccc(Cl)c2c(=O)n1-c1ccccc1 [duvelisib]
# How it was run: as §1
# gandotinib = compound: Cc1cc(Nc2cc(CN3CCOCC3)c3nc(C)c(Cc4ccc(Cl)cc4F)n3n2)n[nH]1 [gandotinib]
# How it was run: as §1
# tozasertib = compound: Cc1cc(Nc2cc(N3CCN(C)CC3)nc(Sc3ccc(NC(=O)C4CC4)cc3)n2)n[nH]1 [tozasertib]
# How it was run: as §1
# doramapimod = compound: Cc1ccc(-n2nc(C(C)(C)C)cc2NC(=O)Nc2ccc(OCCN3CCOCC3)c3ccccc23)cc1 [doramapimod]
# How it was run: as §1
# bafetinib = compound: Cc1ccc(NC(=O)c2ccc(CN3CC[C@H](N(C)C)C3)c(C(F)(F)F)c2)cc1Nc1nccc(-c2cncnc2)n1 [bafetinib]
# How it was run: as §1
# [2] = compound: Cc1cccc(CC(=O)N2CCc3c2ccc(-c2cn(C)c4ncnc(N)c24)c3F)n1
# How it was run: as §1
# lapatinib = compound: CS(=O)(=O)CCNCc1ccc(-c2ccc3ncnc(Nc4ccc(OCc5cccc(F)c5)c(Cl)c4)c3c2)o1 [lapatinib]
# How it was run: as §1
Target,log2 fold change (pictilisib),log2 fold change (crizotinib),log2 fold change [1],log2 fold change (duvelisib),log2 fold change (gandotinib),log2 fold change (tozasertib),log2 fold change (doramapimod),log2 fold change (bafetinib),log2 fold change [2],log2 fold change (lapatinib)
WDR54 isoform 4 (UniProt Q9H977),inactive: -0.147,inactive: 0.04,inactive: 0.066,inactive: -0.022,inactive: -0.322,inactive: -0.187,inactive: -0.017,inactive: 0.069,inactive: 0.001,–
WASHC3 (UniProt Q9Y3C0),inactive: -0.002,inactive: 0.015,inactive: -0.014,inactive: 0.051,inactive: 0.029,inactive: -0.016,inactive: 0.002,inactive: 0.012,inactive: -0.003,inactive: 0.002
WIPI2 isoform 6 (UniProt Q9Y4P8),inactive: -0.102,–,inactive: 0.025,–,inactive: 0.181,–,–,inactive: -0.013,inactive: -0.089,–
VLDLR (UniProt P98155),inactive: 0.081,inactive: 0.176,–,–,–,–,inactive: -0.016,inactive: 0.001,–,–
VPS29 (UniProt Q9UBQ0),–,inactive: -0.119,–,inactive: 0.057,–,–,inactive: -0.101,–,–,inactive: -0.04
WSB1 (UniProt Q9Y6I7),–,–,inactive: 0.12,inactive: -0.137,active: -1.11,–,–,–,inactive: -0.674,–
WAS (UniProt P42768),inactive: -0.027,–,inactive: -0.16,inactive: -0.194,inactive: -0.057,inactive: -0.127,–,inactive: -0.065,inactive: 0.103,–
WDR76 (UniProt Q9H967),–,inactive: 0.027,–,inactive: 0.137,–,inactive: -0.19,inactive: -0.103,–,–,–
XAGE1A (UniProt Q9HD64),inactive: -0.032,–,–,–,–,inactive: -0.094,–,inactive: 0.087,–,–
VPS72 (UniProt Q15906),–,inactive: 0.005,inactive: -0.099,inactive: 0.001,inactive: 0.031,inactive: 0.059,inactive: -0.023,–,inactive: 0.136,inactive: 0.025
WDR53 (UniProt Q7Z5U6),inactive: -0.002,inactive: 0.032,inactive: 0.081,inactive: -0.17,inactive: -0.064,inactive: 0.022,inactive: -0.093,inactive: -0.137,inactive: 0.019,–
"VPS35, A0A1W2PP10",inactive: -0.118,inactive: -0.206,inactive: 0.07,–,inactive: 0.119,–,inactive: -0.089,inactive: 0.121,inactive: -0.03,inactive: 0.244
WDR83 (UniProt Q9BRX9),inactive: -0.062,–,–,inactive: 0.045,–,–,–,inactive: -0.092,–,inactive: -0.151
WAC isoform 5 (UniProt Q9BTA9),–,–,–,inactive: 0.226,–,–,–,–,–,–
VRK2 (UniProt Q86Y07),inactive: 0.002,inactive: -0.069,active: 0.353,inactive: -0.016,inactive: -0.04,inactive: -0.026,inactive: -0.063,inactive: -0.03,inactive: 0.03,inactive: 0.03
WRB (UniProt O00258),inactive: -0.118,inactive: 0.034,inactive: -0.138,inactive: 0.006,active: 0.348,inactive: -0.033,inactive: -0.074,inactive: -0.017,inactive: 0.339,inactive: -0.067
XPNPEP1 isoform 3 (UniProt Q9NQW7),inactive: -0.02,inactive: -0.008,inactive: 0.001,inactive: 0.049,inactive: 0.002,inactive: -0.024,inactive: -0.003,inactive: -0.021,inactive: 0.018,inactive: -0.017
WDR91 (UniProt A4D1P6),inactive: -0.012,inactive: -0.009,inactive: -0.001,inactive: 0.002,inactive: 0.048,inactive: 0,inactive: 0.038,inactive: -0.05,inactive: 0.052,inactive: -0.003

Target,log2 fold change (pictilisib),log2 fold change (crizotinib),log2 fold change [1],log2 fold change (duvelisib),log2 fold change (gandotinib),log2 fold change (tozasertib),log2 fold change (doramapimod),log2 fold change (bafetinib),log2 fold change [2],log2 fold change (lapatinib)
WEE1 (UniProt P30291),inactive: -0.047,inactive: -0.141,–,inactive: 0.033,–,inactive: 0.011,inactive: 0.183,inactive: 0.068,–,inactive: -0.034
WASH6P (UniProt Q9NQA3),inactive: -0.195,–,–,–,–,–,–,inactive: -0.056,–,–
VWA3B isoform 6 (UniProt Q502W6),inactive: -0.134,inactive: 0.057,inactive: -0.312,inactive: 0.109,inactive: 0.086,inactive: 0.042,inactive: 0.021,inactive: -0.25,inactive: 0.287,inactive: -0.083
"WDR46, A0A0G2JJL1",inactive: -0.126,–,inactive: -0.133,inactive: -0.023,inactive: -0.08,–,–,inactive: 0.02,inactive: -0.121,inactive: -0.136
XIRP2 isoform 8 (UniProt A4UGR9),inactive: -0.015,–,–,–,–,–,–,inactive: -0.153,–,inactive: -0.005
WDR36 (UniProt Q8NI36),inactive: -0.008,inactive: -0.02,inactive: 0.024,inactive: 0.016,inactive: -0.097,inactive: 0.017,inactive: 0.061,inactive: 0.005,inactive: -0.004,inactive: 0.013
VPS54 (UniProt Q9P1Q0),inactive: 0.068,inactive: -0.296,inactive: -0.263,inactive: -0.012,inactive: 0.399,inactive: 0.047,inactive: 0.066,inactive: 0.431,inactive: 0.395,inactive: -0.018
WDYHV1 (UniProt Q96HA8),–,inactive: 0.04,–,inactive: 0.032,–,inactive: 0.095,inactive: -0.014,–,–,inactive: 0.041
WDR19 (UniProt Q8NEZ3),inactive: -0.152,inactive: -0.208,inactive: -0.131,–,inactive: 0.135,–,inactive: 0.015,inactive: -0.122,inactive: 0.213,inactive: -0.117
XP32 (UniProt Q5T750),–,inactive: -0.675,inactive: 0.924,–,inactive: 0.101,–,inactive: 0.207,–,inactive: -0.41,–
VWA8 (UniProt A3KMH1),inactive: -0.126,inactive: -0.07,inactive: 0.167,inactive: -0.005,inactive: -0.392,inactive: 0.012,inactive: -0.018,inactive: 0.015,inactive: 0.047,inactive: -0.122
XK (UniProt P51811),inactive: -0.013,–,inactive: -0.019,inactive: 0.04,inactive: -0.007,inactive: -0.096,–,inactive: -0.042,inactive: 0.043,inactive: 0.008
"WDR13, A0A087X091",–,–,inactive: -0.01,–,inactive: 0.16,–,–,–,inactive: -0.072,–
WARS1 (UniProt G3V277),inactive: -0.098,–,–,–,–,inactive: 0.076,–,inactive: -0.127,–,–
VPS25 (UniProt Q9BRG1),inactive: 0.008,inactive: 0.028,inactive: 0.17,inactive: -0.018,inactive: -0.069,inactive: -0.029,inactive: -0.025,inactive: -0.046,inactive: -0.038,inactive: -0.012
WWOX (UniProt Q9NZC7),–,inactive: -0.057,inactive: 0.133,inactive: 0.016,inactive: -0.246,–,inactive: -0.233,–,inactive: -0.278,–
WDR34 (UniProt Q96EX3),inactive: 0.09,inactive: 0.183,inactive: -0.042,inactive: 0.029,inactive: -0.046,inactive: 0.052,inactive: -0.205,inactive: -0.041,inactive: 0.017,–
WDTC1 (UniProt Q8N5D0),inactive: -0.031,inactive: 0,inactive: -0.024,inactive: 0.072,inactive: 0.025,inactive: 0,inactive: -0.063,inactive: -0.065,inactive: 0.046,inactive: 0.025

# Two consecutive entries from above, quoted:
Target,log2 fold change (pictilisib),log2 fold change (crizotinib),log2 fold change [1],log2 fold change (duvelisib),log2 fold change (gandotinib),log2 fold change (tozasertib),log2 fold change (doramapimod),log2 fold change (bafetinib),log2 fold change [2],log2 fold change (lapatinib)
XP32 (UniProt Q5T750),–,inactive: -0.675,inactive: 0.924,–,inactive: 0.101,–,inactive: 0.207,–,inactive: -0.41,–
VWA8 (UniProt A3KMH1),inactive: -0.126,inactive: -0.07,inactive: 0.167,inactive: -0.005,inactive: -0.392,inactive: 0.012,inactive: -0.018,inactive: 0.015,inactive: 0.047,inactive: -0.122
